Source: article PMC9260208
These are yes or no findings as the source states them, for the method shown. Binding seen in cells or lysates may run through a third protein. Some entries that bind do so weakly or less than the wild type.

Protein sequences, listed by entry. Tags and fused reporters are not part of them. Lines headed by an entry give the natural chain unless they say otherwise; changes in a name come on top. Chains listed by the source or under a name are the forms on record and can include a tag or linker. Residues count along the entry.
UniProt O55242: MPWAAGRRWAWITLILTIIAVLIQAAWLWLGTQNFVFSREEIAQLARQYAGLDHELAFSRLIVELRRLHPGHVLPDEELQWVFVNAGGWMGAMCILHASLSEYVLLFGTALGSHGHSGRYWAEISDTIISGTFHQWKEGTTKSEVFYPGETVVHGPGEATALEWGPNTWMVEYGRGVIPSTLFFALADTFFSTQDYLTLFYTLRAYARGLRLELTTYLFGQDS
C‐terminus of Sigmar1 (31–223 aa): residues 31-223 of O55242
UniProt O55143: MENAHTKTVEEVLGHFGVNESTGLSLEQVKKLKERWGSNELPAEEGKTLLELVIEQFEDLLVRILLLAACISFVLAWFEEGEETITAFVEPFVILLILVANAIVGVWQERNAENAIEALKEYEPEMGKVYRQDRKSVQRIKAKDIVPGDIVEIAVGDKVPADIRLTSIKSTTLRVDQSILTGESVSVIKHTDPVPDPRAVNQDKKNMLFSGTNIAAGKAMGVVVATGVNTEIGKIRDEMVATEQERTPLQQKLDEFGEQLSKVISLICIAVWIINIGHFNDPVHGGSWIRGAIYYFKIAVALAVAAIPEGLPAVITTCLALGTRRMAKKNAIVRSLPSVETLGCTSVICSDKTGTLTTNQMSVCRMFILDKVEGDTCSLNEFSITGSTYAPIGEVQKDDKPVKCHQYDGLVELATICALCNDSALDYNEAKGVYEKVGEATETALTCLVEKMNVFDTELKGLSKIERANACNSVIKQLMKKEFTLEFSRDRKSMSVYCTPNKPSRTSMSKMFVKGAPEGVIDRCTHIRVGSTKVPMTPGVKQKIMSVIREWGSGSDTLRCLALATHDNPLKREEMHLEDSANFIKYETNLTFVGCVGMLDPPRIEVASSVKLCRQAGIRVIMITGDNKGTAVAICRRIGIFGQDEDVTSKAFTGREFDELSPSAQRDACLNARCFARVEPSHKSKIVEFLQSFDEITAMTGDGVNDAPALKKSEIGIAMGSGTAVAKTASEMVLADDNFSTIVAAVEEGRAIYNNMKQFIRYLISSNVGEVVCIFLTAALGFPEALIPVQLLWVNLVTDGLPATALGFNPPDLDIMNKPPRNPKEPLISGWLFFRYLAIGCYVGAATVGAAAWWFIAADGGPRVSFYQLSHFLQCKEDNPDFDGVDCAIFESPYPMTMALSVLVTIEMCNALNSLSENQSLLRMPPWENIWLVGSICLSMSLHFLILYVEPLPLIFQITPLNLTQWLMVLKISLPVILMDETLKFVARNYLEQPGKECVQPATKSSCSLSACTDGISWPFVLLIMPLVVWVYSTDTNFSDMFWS
SERCA2 truncation (314–807 aa) with the Q615A mutation (O55143, form named): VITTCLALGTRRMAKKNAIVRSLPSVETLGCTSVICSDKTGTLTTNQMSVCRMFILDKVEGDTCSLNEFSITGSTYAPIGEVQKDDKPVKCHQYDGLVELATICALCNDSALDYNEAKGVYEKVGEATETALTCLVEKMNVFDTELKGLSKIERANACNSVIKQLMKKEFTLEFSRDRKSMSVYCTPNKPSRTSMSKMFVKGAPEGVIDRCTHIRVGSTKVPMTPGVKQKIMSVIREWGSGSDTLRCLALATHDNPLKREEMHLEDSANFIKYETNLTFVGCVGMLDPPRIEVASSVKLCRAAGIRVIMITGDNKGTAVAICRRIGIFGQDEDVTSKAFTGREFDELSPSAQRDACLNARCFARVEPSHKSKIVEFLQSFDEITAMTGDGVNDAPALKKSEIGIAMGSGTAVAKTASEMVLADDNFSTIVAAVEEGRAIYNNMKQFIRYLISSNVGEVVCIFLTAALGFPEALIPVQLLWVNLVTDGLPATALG

Tests used:
[1] = target: Sigma‐1 receptor (Sigmar1), 3×FLAG-tagged (not stated (human or mouse cDNA cloned)) (UniProt O55242); test: co-IP; HEK‐293T cells transfected with the indicated plasmids for 48 h; lysates precipitated with Flag‐tag or Myc‐tag mouse mAb at 4°C overnight, protein A/G beads, western blotting
[2] = target: C‐terminus of Sigmar1 (31–223 aa) (mouse) (UniProt O55242); test: as above
[3] = target: Sigmar1, endogenous in mouse BMMs (mouse (endogenous in BMMs)) (UniProt O55242); test: co-IP; endogenous proteins; lysates of mouse BMMs incubated with anti‐Sigmar1 antibody or normal rabbit IgG, protein A/G beads, western blotting

Substance | binding [1] | binding [2] | binding [3]
full‐length SERCA2 with the Q615A mutation (from UniProt O55143 1-1044) (enzyme) | binds weakly |  | 
SERCA2 truncation (314–807 aa) with the Q615A mutation (from UniProt O55143 314-807) (domain or fragment) | binds weakly |  | 
mouse SERCA2, 3×MYC-tagged, full length (from UniProt O55143 1-1044) (enzyme) | binds | binds | 
SERCA2, endogenous in mouse BMMs (from UniProt O55143 1-1044) (enzyme) |  |  | binds
SERCA2 truncation‐3 (314–807 aa) (from UniProt O55143 314-807) (domain or fragment) | binds |  | 
